{"source": "PubChem BioAssay AID1259405 (NCATS, 2018)", "assay": "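Mouse-designed siRNAs used to find CHO productivity engineering targets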 (primary screen)", "cells": "Chinese hamster CHO-K1 ovary cells with stable secreted eGFP expression", "reagent": "single siRNA against mouse genes, 0.8 pmol siRNA per well (2 µl of 400 nM stock)", "time to read-out": "3 days", "read-out": "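Percent of the per-plate non-targeting control median for intracellular GFP per well by laser scanning cytometry and for cell viability by ATP luminescence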", "direction": "GFP, % of control: higher = more GFP per well, higher productivity; viability (ATP), % of control: higher = more viable cells (more ATP)", "hit rule": "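Called active when intracellular GFP, relative to negative control, is at or above 120%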", "note": "The whole screen tested about 50,000 reagents; this is a random part of them. In the full data, about 4,000 (8%) got an active call. 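Mouse siRNA library applied to hamster cells; one well for each siRNA.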 The numbers tell different reagents against one gene apart. No sequences are given here."}
{"target": "Saa3 (serum amyloid A 3)", "reagent": 1, "GFP, % of control": 82.8, "viability (ATP), % of control": 81.3, "Call": "inactive"}
{"target": "Saa3 (serum amyloid A 3)", "reagent": 2, "GFP, % of control": 75.3, "viability (ATP), % of control": 65.8, "Call": "inactive"}
{"target": "Saa3 (serum amyloid A 3)", "reagent": 3, "GFP, % of control": 38.2, "viability (ATP), % of control": 69.5, "Call": "inactive"}
{"target": "Rfng (RFNG O-fucosylpeptide 3-beta-N-acetylglucosaminyltransferase)", "reagent": 1, "GFP, % of control": 14.1, "viability (ATP), % of control": 20.8, "Call": "inactive"}
{"target": "Rfng (RFNG O-fucosylpeptide 3-beta-N-acetylglucosaminyltransferase)", "reagent": 2, "GFP, % of control": 79.7, "viability (ATP), % of control": 78.2, "Call": "inactive"}
{"target": "Rfng (RFNG O-fucosylpeptide 3-beta-N-acetylglucosaminyltransferase)", "reagent": 3, "GFP, % of control": 69.6, "viability (ATP), % of control": 67, "Call": "inactive"}
{"target": "Ercc3", "reagent": 1, "GFP, % of control": 98.3, "viability (ATP), % of control": 88.1, "Call": "inactive"}
{"target": "Ercc3", "reagent": 2, "GFP, % of control": 70.2, "viability (ATP), % of control": 68.4, "Call": "inactive"}
{"target": "Ercc3", "reagent": 3, "GFP, % of control": 41.8, "viability (ATP), % of control": 65, "Call": "inactive"}
{"target": "Trim23 (tripartite motif-containing 23)", "reagent": 1, "GFP, % of control": 117, "viability (ATP), % of control": 110, "Call": "inactive"}
{"target": "Trim23 (tripartite motif-containing 23)", "reagent": 2, "GFP, % of control": 101, "viability (ATP), % of control": 81.1, "Call": "inactive"}
{"target": "Trim23 (tripartite motif-containing 23)", "reagent": 3, "GFP, % of control": 67.6, "viability (ATP), % of control": 59.5, "Call": "inactive"}
{"target": "Wfdc1 (WAP four-disulfide core domain 1)", "reagent": 1, "GFP, % of control": 107, "viability (ATP), % of control": 112, "Call": "inactive"}
{"target": "Wfdc1 (WAP four-disulfide core domain 1)", "reagent": 2, "GFP, % of control": 63.4, "viability (ATP), % of control": 67.2, "Call": "inactive"}
{"target": "Wfdc1 (WAP four-disulfide core domain 1)", "reagent": 3, "GFP, % of control": 55.9, "viability (ATP), % of control": 74.7, "Call": "inactive"}
{"target": "Loxhd1 (lipoxygenase homology domains 1)", "reagent": 1, "GFP, % of control": 59.6, "viability (ATP), % of control": 71.1, "Call": "inactive"}
{"target": "Loxhd1 (lipoxygenase homology domains 1)", "reagent": 2, "GFP, % of control": 70.2, "viability (ATP), % of control": 91.4, "Call": "inactive"}
{"target": "Loxhd1 (lipoxygenase homology domains 1)", "reagent": 3, "GFP, % of control": 73.4, "viability (ATP), % of control": 87.5, "Call": "inactive"}
{"target": "Ccdc121rt1 (coiled-coil domain containing 121, retrogene 1)", "reagent": 1, "GFP, % of control": 65.3, "viability (ATP), % of control": 74.7, "Call": "inactive"}
{"target": "Ccdc121rt1 (coiled-coil domain containing 121, retrogene 1)", "reagent": 2, "GFP, % of control": 161, "viability (ATP), % of control": 117, "Call": "active"}
{"target": "Ccdc121rt1 (coiled-coil domain containing 121, retrogene 1)", "reagent": 3, "GFP, % of control": 131, "viability (ATP), % of control": 167, "Call": "active"}
{"target": "Ddx50 (DExD box helicase 50)", "reagent": 1, "GFP, % of control": 79.3, "viability (ATP), % of control": 83.4, "Call": "inactive"}
{"target": "Ddx50 (DExD box helicase 50)", "reagent": 2, "GFP, % of control": 59.7, "viability (ATP), % of control": 57.9, "Call": "inactive"}
{"target": "Ddx50 (DExD box helicase 50)", "reagent": 3, "GFP, % of control": 188, "viability (ATP), % of control": 194, "Call": "active"}
{"target": "Pcdhb15 (protocadherin beta 15)", "reagent": 1, "GFP, % of control": 107, "viability (ATP), % of control": 101, "Call": "inactive"}
{"target": "Pcdhb15 (protocadherin beta 15)", "reagent": 2, "GFP, % of control": 99.4, "viability (ATP), % of control": 80, "Call": "inactive"}
{"target": "A430033K04Rik (RIKEN cDNA A430033K04 gene)", "reagent": 1, "GFP, % of control": 78.4, "viability (ATP), % of control": 68.7, "Call": "inactive"}
{"target": "A430033K04Rik (RIKEN cDNA A430033K04 gene)", "reagent": 2, "GFP, % of control": 55.5, "viability (ATP), % of control": 54.1, "Call": "inactive"}
{"target": "A430033K04Rik (RIKEN cDNA A430033K04 gene)", "reagent": 3, "GFP, % of control": 90.7, "viability (ATP), % of control": 86.7, "Call": "inactive"}
{"target": "Tbx21 (T-box 21)", "reagent": 1, "GFP, % of control": 106, "viability (ATP), % of control": 114, "Call": "inactive"}
{"target": "Tbx21 (T-box 21)", "reagent": 2, "GFP, % of control": 91.9, "viability (ATP), % of control": 75, "Call": "inactive"}
{"target": "Tbx21 (T-box 21)", "reagent": 3, "GFP, % of control": 82, "viability (ATP), % of control": 96.9, "Call": "inactive"}
{"target": "Or10c1 (olfactory receptor family 10 subfamily C member 1)", "reagent": 1, "GFP, % of control": 108, "viability (ATP), % of control": 98.2, "Call": "inactive"}
{"target": "Or10c1 (olfactory receptor family 10 subfamily C member 1)", "reagent": 2, "GFP, % of control": 55.6, "viability (ATP), % of control": 59.3, "Call": "inactive"}
{"target": "Or10c1 (olfactory receptor family 10 subfamily C member 1)", "reagent": 3, "GFP, % of control": 74.2, "viability (ATP), % of control": 101, "Call": "inactive"}
{"target": "Zc3h7a (zinc finger CCCH type containing 7 A)", "reagent": 1, "GFP, % of control": 41.6, "viability (ATP), % of control": 38.2, "Call": "inactive"}
{"target": "Zc3h7a (zinc finger CCCH type containing 7 A)", "reagent": 2, "GFP, % of control": 42.5, "viability (ATP), % of control": 55.4, "Call": "inactive"}
{"target": "Zc3h7a (zinc finger CCCH type containing 7 A)", "reagent": 3, "GFP, % of control": 62.2, "viability (ATP), % of control": 117, "Call": "inactive"}
{"target": "Artn (artemin)", "reagent": 1, "GFP, % of control": 64.2, "viability (ATP), % of control": 60.7, "Call": "inactive"}
{"target": "Artn (artemin)", "reagent": 2, "GFP, % of control": 107, "viability (ATP), % of control": 35.5, "Call": "inactive"}
{"target": "Artn (artemin)", "reagent": 3, "GFP, % of control": 39.6, "viability (ATP), % of control": 65.6, "Call": "inactive"}
